# Assay results as given in the supplement of paper PMC10849652.
# Protein sequences, listed by entry. Tags and fused reporters are not part of them. Lines headed by an entry give the natural chain unless they say otherwise; changes in a name come on top.
# UniProt Q8N5X7: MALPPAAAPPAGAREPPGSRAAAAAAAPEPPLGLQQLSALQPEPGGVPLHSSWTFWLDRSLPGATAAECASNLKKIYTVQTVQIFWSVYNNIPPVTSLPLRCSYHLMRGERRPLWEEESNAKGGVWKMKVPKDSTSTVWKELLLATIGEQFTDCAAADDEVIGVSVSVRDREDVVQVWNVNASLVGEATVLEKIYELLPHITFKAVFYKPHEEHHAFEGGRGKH
# UniProt O00418: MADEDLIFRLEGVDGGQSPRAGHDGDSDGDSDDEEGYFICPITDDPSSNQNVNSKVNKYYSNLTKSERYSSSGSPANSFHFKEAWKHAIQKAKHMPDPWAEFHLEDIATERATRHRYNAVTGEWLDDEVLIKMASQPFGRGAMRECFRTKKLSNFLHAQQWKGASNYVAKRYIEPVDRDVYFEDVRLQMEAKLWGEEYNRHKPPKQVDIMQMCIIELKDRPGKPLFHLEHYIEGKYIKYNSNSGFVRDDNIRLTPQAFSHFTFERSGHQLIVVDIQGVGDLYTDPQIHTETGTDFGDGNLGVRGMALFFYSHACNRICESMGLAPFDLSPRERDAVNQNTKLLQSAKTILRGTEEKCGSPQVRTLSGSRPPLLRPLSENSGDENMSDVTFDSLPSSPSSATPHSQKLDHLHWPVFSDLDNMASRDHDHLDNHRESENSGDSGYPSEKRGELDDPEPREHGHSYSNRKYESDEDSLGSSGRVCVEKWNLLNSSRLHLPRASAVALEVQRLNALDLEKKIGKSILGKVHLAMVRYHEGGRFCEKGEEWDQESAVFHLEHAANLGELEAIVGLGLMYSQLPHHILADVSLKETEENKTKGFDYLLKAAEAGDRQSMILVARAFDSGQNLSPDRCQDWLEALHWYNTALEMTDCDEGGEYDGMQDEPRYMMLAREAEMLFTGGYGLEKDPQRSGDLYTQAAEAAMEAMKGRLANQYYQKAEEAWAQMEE
# UniProt Q9BUP0: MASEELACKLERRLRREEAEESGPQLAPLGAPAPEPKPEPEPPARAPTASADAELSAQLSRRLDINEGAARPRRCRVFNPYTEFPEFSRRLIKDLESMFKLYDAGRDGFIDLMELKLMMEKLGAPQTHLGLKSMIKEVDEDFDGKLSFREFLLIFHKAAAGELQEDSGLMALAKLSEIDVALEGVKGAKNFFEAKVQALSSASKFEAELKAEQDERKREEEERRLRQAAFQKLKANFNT
# UniProt Q96C92: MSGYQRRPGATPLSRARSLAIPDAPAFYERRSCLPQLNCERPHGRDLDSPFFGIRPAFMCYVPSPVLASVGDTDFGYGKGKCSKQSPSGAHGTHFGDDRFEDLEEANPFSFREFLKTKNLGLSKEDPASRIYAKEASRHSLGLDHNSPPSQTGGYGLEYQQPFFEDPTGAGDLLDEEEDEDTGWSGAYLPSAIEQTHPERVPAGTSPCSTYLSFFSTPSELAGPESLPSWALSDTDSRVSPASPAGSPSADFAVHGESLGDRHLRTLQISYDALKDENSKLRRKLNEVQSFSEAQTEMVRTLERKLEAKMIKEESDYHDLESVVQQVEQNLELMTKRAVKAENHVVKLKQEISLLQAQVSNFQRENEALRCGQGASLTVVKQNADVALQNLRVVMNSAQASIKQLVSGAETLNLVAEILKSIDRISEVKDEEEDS
# UniProt P11171, whole entry, looked up: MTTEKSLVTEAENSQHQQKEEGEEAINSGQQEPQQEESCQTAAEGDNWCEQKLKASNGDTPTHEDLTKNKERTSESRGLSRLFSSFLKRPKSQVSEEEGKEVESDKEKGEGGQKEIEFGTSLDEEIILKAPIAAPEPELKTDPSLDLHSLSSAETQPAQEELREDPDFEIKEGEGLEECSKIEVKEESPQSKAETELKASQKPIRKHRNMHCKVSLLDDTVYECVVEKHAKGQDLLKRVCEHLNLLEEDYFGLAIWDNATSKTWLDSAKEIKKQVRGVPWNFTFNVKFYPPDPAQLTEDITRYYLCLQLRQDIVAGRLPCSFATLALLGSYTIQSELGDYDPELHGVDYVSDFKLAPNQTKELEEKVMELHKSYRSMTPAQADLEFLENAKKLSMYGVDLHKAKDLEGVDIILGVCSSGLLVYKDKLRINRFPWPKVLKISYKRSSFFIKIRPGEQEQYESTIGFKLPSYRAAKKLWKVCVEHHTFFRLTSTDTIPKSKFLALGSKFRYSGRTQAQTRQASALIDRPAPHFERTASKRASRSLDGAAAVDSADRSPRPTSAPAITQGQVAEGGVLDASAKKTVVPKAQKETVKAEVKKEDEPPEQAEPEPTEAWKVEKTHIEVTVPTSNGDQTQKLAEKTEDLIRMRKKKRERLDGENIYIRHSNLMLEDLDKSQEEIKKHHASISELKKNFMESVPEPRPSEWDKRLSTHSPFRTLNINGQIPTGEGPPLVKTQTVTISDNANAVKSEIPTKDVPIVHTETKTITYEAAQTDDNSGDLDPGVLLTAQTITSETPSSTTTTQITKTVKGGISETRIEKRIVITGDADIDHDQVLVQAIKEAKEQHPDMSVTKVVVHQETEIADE
# UniProt Q9Y6B2: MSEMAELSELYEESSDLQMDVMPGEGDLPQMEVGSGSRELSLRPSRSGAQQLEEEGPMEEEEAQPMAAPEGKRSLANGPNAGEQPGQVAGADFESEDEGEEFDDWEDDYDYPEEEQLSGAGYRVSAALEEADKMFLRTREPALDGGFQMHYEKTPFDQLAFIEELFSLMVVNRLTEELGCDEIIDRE
# UniProt Q9NYP7: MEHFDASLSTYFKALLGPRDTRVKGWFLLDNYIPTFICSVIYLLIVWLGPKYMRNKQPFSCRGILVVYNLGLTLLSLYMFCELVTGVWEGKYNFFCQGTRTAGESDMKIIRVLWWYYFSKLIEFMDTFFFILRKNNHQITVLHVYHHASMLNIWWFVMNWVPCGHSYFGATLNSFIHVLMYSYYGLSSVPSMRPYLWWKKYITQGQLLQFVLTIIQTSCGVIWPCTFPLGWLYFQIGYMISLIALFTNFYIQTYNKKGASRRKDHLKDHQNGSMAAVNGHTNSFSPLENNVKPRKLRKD
# UniProt A1L3X0: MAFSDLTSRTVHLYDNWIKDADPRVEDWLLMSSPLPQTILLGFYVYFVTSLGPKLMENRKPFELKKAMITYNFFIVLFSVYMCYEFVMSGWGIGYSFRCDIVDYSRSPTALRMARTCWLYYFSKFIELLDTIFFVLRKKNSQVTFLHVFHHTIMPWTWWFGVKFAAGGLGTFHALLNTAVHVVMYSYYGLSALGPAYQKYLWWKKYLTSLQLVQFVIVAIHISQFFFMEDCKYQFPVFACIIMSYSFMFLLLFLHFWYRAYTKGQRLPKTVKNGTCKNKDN
# UniProt Q9Y3B6: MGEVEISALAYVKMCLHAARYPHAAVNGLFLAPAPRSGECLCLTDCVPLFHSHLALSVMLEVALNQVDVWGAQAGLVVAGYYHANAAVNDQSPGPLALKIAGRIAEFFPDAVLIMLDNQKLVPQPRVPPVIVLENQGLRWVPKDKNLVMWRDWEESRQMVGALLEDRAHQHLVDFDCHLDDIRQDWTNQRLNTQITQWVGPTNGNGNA
# UniProt Q9H0I2: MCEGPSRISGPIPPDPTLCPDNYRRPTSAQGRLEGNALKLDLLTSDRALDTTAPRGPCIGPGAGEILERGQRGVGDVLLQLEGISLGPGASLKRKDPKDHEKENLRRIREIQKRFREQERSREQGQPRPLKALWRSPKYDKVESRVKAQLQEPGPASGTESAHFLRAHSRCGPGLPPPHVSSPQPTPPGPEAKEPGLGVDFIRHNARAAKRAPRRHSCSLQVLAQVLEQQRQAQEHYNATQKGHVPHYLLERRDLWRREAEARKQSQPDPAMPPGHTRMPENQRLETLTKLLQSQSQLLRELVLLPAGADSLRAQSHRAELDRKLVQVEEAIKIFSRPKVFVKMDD
# UniProt Q6ZTU2, whole entry, looked up: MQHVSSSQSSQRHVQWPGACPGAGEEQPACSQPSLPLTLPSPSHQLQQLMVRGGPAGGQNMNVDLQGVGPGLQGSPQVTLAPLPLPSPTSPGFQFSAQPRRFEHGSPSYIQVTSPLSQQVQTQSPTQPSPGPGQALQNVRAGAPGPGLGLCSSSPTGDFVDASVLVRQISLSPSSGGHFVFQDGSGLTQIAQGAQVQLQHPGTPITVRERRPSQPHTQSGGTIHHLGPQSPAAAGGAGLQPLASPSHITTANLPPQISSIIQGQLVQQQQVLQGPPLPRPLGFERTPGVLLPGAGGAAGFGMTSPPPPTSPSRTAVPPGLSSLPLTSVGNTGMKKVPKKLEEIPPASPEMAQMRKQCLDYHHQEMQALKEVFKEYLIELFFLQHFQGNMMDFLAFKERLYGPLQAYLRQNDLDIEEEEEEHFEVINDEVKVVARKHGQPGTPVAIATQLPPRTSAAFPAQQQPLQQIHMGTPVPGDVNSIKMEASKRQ
# UniProt P29692: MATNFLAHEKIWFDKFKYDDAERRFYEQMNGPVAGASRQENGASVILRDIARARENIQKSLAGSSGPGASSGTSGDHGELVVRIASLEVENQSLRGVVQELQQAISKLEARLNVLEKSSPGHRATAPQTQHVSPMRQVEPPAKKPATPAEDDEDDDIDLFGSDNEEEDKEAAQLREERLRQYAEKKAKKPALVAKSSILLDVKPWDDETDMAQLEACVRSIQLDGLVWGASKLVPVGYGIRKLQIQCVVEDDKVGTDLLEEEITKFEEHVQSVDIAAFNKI
# UniProt O75355: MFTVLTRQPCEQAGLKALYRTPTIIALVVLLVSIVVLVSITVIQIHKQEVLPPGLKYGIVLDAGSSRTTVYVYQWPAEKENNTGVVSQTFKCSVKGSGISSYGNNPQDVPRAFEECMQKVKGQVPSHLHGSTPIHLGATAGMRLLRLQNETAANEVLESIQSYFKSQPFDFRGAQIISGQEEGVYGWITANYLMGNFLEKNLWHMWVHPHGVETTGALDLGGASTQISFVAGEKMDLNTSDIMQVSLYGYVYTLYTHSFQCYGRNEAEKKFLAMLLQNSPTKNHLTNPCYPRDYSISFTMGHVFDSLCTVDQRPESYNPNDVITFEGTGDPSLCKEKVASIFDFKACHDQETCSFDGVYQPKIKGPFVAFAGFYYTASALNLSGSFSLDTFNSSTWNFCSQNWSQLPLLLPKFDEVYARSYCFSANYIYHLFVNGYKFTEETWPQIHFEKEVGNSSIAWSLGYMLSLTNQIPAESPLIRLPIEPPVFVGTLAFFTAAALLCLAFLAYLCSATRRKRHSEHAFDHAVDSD
# UniProt Q5JPI9: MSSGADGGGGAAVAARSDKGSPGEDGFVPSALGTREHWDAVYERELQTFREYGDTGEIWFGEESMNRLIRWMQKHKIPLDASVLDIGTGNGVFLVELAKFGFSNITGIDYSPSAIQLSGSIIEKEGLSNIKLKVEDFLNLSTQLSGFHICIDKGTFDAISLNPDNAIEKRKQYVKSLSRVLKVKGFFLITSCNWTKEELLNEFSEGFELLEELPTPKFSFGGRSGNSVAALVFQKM
# UniProt Q8WVE0: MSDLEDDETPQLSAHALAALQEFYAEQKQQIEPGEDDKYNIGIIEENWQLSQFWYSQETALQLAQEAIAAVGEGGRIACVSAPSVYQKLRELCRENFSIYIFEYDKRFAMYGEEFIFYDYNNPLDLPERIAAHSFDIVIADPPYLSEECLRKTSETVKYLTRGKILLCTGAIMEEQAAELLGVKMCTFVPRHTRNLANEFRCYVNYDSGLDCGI
# UniProt Q14241: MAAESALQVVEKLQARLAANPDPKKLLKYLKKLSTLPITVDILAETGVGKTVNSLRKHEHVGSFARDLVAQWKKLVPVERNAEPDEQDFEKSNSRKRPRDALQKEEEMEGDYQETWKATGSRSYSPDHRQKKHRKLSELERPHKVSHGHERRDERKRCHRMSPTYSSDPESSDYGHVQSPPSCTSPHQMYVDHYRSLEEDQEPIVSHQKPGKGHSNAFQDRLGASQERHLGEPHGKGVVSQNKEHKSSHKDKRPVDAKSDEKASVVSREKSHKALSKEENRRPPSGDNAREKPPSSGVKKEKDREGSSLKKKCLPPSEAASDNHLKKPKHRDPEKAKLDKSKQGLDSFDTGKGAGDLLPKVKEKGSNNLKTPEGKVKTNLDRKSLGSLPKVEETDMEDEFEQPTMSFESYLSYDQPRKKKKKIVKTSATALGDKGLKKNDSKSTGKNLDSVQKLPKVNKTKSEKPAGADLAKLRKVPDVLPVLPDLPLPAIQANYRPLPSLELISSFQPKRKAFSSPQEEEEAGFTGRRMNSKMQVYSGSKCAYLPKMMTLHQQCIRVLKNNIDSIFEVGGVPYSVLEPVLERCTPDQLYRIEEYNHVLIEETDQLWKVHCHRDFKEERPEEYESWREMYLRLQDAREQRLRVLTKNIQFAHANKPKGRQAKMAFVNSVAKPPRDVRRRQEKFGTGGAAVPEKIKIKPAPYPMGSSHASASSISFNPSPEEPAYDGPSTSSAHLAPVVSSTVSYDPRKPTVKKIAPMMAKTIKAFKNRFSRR
# This is one part of the list. Residues, ends and D or L forms follow the SMILES beside them. *: point of attachment. Cbz = O=C(OCc1ccccc1)*
# Key:
# Assay in all cases: log2 fold change, soluble protein after heating vs DMSO (PISA); higher = thermal stabilisation; K562 cells, 10 uM, 30 min; active = over 0.2 and 3.5 SD of the protein, either way, in both replicates (recomputed)
# ibrutinib = compound: C=CC(=O)N1CCC[C@@H](n2nc(-c3ccc(Oc4ccccc4)cc3)c3c(N)ncnc32)C1 [ibrutinib]
# In short: (§1)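 K562 cells at 2×10^6 cells/mL were treated for 30 min with 10 μM compound, and aliquots were heated for 3 min over 48°C-58°C before pooling. Extraction used PBS with 0.5% NP-40 at 4°C, and soluble protein was the supernatant after 21,000xg for 90 min, measured by TMTpro 16plex LC-MS/MS with channel sums equalised. Thermal stability values, relative to control samples and from duplicates, are log2 fold changes.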
# [1] = compound: CC(=O)c1cnc2ccc(-c3cc(Cl)c(O)c(Cl)c3)nc2c1N[C@H]1CC[C@H](CN(C)C)CC1
# In short: as §1
# ralimetinib = compound: CC(C)(C)Cn1c(N)nc2ccc(-c3[nH]c(C(C)(C)C)nc3-c3ccc(F)cc3)nc21 [ralimetinib]
# In short: as §1
# [2] = compound: CC(C)(O)CC(=O)NCCn1ccc2ncnc(Nc3ccc(Oc4cccc(C(F)(F)F)c4)c(Cl)c3)c21
# In short: as §1
# [3] = compound: CC(C)C1=C2N=C(C=C(N2N=C1)NCC3=CC=CC=C3)NCCCCCCN
# In short: as §1
# [4] = compound: CC(C)C[C@@H](C=O)NC(=O)[C@H](CC(C)C)NC(=O)[C@H](CC(C)C)NC(=O)OCc1ccccc1
# In short: as §1
# [5] = compound: CC1=C(C(CC(=O)N1)C2=CC=C(C=C2)C(F)(F)F)C(=O)NC3=C(C=C4C(=C3)C=NN4)F
# In short: as §1
# [6] = compound: CC1=C(C2=C(C=C1)C(=O)C3=CC=CC=C3N2CCCN)C
# In short: as §1
# IRAK-1-4 Inhibitor I = compound: C1COCCN1CCN2C3=CC=CC=C3N=C2NC(=O)C4=CC(=CC=C4)[N+](=O)[O-] [IRAK-1-4 Inhibitor I]
# In short: as §1
# pinometostat = compound: CC(C)N(C[C@H]1O[C@@H](n2cnc3c(N)ncnc32)[C@H](O)[C@@H]1O)[C@H]1C[C@@H](CCc2nc3cc(C(C)(C)C)ccc3[nH]2)C1 [pinometostat]
# In short: as §1
target,measurement,setting,value
ELL (UniProt P55199),log2 fold change,ibrutinib,inactive: 0
same,log2 fold change,[1],inactive: -0.176
same,log2 fold change,ralimetinib,inactive: 0.183
same,log2 fold change,[2],inactive: -0.117
same,log2 fold change,[3],inactive: -0.014
same,log2 fold change,[4],inactive: 0.106
same,log2 fold change,[5],inactive: -0.063
same,log2 fold change,[6],inactive: 0.263
ENPP2 isoform 2 (UniProt Q13822),log2 fold change,ibrutinib,inactive: 0.038
same,log2 fold change,[2],inactive: -0.032
EFR3A (UniProt Q14156),log2 fold change,[2],inactive: 0.103
same,log2 fold change,[5],inactive: -0.013
EIF4E3 (UniProt Q8N5X7),log2 fold change,IRAK-1-4 Inhibitor I,inactive: -0.085
same,log2 fold change,ralimetinib,inactive: -0.027
same,log2 fold change,[3],inactive: -0.055
same,log2 fold change,[4],inactive: -0.062
same,log2 fold change,pinometostat,inactive: 0.152
EHBP1 (UniProt Q8NDI1),log2 fold change,[1],inactive: 0.018
same,log2 fold change,[6],inactive: -0.003
EGR1 (UniProt P18146),log2 fold change,ibrutinib,inactive: 0
same,log2 fold change,[1],active: -1.07
same,log2 fold change,ralimetinib,inactive: 0.042
same,log2 fold change,[2],inactive: 0.044
same,log2 fold change,[3],inactive: -0.452
same,log2 fold change,[4],inactive: 0.153
same,log2 fold change,[6],inactive: -0.472
EEF2K (UniProt O00418),log2 fold change,ralimetinib,inactive: 0.126
same,log2 fold change,[2],inactive: -0.047
same,log2 fold change,[3],inactive: -0.245
same,log2 fold change,[4],inactive: 0.169
EGFL7 (UniProt Q9UHF1),log2 fold change,ibrutinib,inactive: -0.232
same,log2 fold change,[1],inactive: -0.119
same,log2 fold change,[2],inactive: -0.003
EIF4G1 (UniProt Q04637),log2 fold change,[1],inactive: -0.334
same,log2 fold change,[6],inactive: 0.067
EIF5A2 (UniProt Q9GZV4),log2 fold change,ibrutinib,inactive: -0.195
same,log2 fold change,[1],inactive: -0.039
same,log2 fold change,ralimetinib,inactive: -0.02
same,log2 fold change,[4],inactive: 0.035
EFHD1 (UniProt Q9BUP0),log2 fold change,[2],inactive: 0
same,log2 fold change,[5],inactive: -0.12
same,log2 fold change,[6],inactive: -0.337
ENTR1 (UniProt Q96C92),log2 fold change,[3],inactive: -0.156
EPB41 isoform 4 (UniProt P11171),log2 fold change,ibrutinib,inactive: -0.229
same,log2 fold change,ralimetinib,inactive: 0.122
same,log2 fold change,[4],inactive: 0.035
same,log2 fold change,[6],inactive: -0.1
EIF4H isoform 2 (UniProt Q15056),log2 fold change,[1],inactive: -0.044
same,log2 fold change,[3],inactive: 0.068
EID1 (UniProt Q9Y6B2),log2 fold change,[2],inactive: 0.002
same,log2 fold change,[3],inactive: 0.05
same,log2 fold change,[6],inactive: -0.281
ELOVL5 isoform 2 (UniProt Q9NYP7),log2 fold change,ibrutinib,inactive: -0.075
same,log2 fold change,[1],inactive: -0.032
same,log2 fold change,ralimetinib,inactive: -0.058
same,log2 fold change,[2],inactive: -0.272
same,log2 fold change,[3],inactive: -0.348
same,log2 fold change,[4],inactive: -0.05
same,log2 fold change,[6],inactive: 0.002
ELOVL7 (UniProt A1L3X0),log2 fold change,[1],inactive: 0.059
same,log2 fold change,[2],inactive: -0.177
same,log2 fold change,[3],active: -0.617
same,log2 fold change,[6],inactive: 0.062
EMC9 (UniProt Q9Y3B6),log2 fold change,[5],inactive: -0.02
"EPB41, A0A2R8Y6D0",log2 fold change,ibrutinib,inactive: 0.038
same,log2 fold change,[1],inactive: -0.083
same,log2 fold change,ralimetinib,inactive: -0.003
same,log2 fold change,[3],inactive: 0.112
same,log2 fold change,[4],inactive: 0.03
same,log2 fold change,[5],inactive: -0.028
same,log2 fold change,[6],inactive: 0
ENKD1 (UniProt Q9H0I2),log2 fold change,[3],inactive: -0.043
same,log2 fold change,[6],inactive: -0.008
ELK1 (UniProt P19419),log2 fold change,IRAK-1-4 Inhibitor I,inactive: 0.026
same,log2 fold change,pinometostat,inactive: -0.111
ELMO2 (UniProt Q96JJ3),log2 fold change,ralimetinib,inactive: -0.055
same,log2 fold change,[4],inactive: 0.024
ENO3 (UniProt K7EKN2),log2 fold change,ralimetinib,inactive: 0
same,log2 fold change,[4],inactive: 0.126
"EPB41, A0A2R8Y783",log2 fold change,IRAK-1-4 Inhibitor I,inactive: 0.049
same,log2 fold change,pinometostat,inactive: 0.127
same,log2 fold change,[5],inactive: 0.107
EP400P1 isoform 6 (UniProt Q6ZTU2),log2 fold change,ralimetinib,inactive: 0.022
same,log2 fold change,[4],inactive: -0.045
same,log2 fold change,[6],inactive: 0.039
EFCAB2 (UniProt Q5VUJ9),log2 fold change,[1],inactive: -0.219
same,log2 fold change,ralimetinib,inactive: -0.362
same,log2 fold change,[3],inactive: -0.115
same,log2 fold change,[4],inactive: 0.119
ELP5 isoform 2 (UniProt Q8TE02),log2 fold change,[3],inactive: 0.365
EEF1D isoform 3 (UniProt P29692),log2 fold change,[3],inactive: -0.27
same,log2 fold change,[6],inactive: 0.605
EIF5A (UniProt I3L397),log2 fold change,ralimetinib,inactive: -0.307
same,log2 fold change,[4],inactive: 0.054
ENTPD3 (UniProt O75355),log2 fold change,IRAK-1-4 Inhibitor I,inactive: -0.302
same,log2 fold change,pinometostat,inactive: -0.143
EIF3E (UniProt E5RIT4),log2 fold change,[2],inactive: 0.269
EEF1AKMT2 (UniProt Q5JPI9),log2 fold change,ibrutinib,inactive: 0.007
same,log2 fold change,[3],inactive: -0.206
EEF1AKMT1 (UniProt Q8WVE0),log2 fold change,[2],inactive: -0.207
ELOA (UniProt Q14241),log2 fold change,[2],inactive: 0.046
ENTPD6 (UniProt O75354),log2 fold change,ibrutinib,inactive: -0.047
same,log2 fold change,[1],inactive: -0.099
same,log2 fold change,ralimetinib,inactive: -0.01
same,log2 fold change,[2],inactive: -0.184
same,log2 fold change,[3],inactive: -0.065
same,log2 fold change,[4],inactive: 0.034
same,log2 fold change,[5],inactive: -0.02
same,log2 fold change,[6],inactive: 0.044

# Copied from the results shown (5 entries):
target,measurement,setting,value
ENPP2 isoform 2 (UniProt Q13822),log2 fold change,[2],inactive: -0.032
EFR3A (UniProt Q14156),log2 fold change,[2],inactive: 0.103
same,log2 fold change,[5],inactive: -0.013
EIF4E3 (UniProt Q8N5X7),log2 fold change,IRAK-1-4 Inhibitor I,inactive: -0.085
same,log2 fold change,ralimetinib,inactive: -0.027
